Measured values reported in patent US20010029293A1.
No constants are given. Whether binding was seen depends on the method and setting. Some binding calls cover weakened binding; strength is not graded here.

Amino acid sequences for entries named in this document (tags omitted). A change or cut given only in a name is not applied to a line headed by its entry.
UniProt P13612: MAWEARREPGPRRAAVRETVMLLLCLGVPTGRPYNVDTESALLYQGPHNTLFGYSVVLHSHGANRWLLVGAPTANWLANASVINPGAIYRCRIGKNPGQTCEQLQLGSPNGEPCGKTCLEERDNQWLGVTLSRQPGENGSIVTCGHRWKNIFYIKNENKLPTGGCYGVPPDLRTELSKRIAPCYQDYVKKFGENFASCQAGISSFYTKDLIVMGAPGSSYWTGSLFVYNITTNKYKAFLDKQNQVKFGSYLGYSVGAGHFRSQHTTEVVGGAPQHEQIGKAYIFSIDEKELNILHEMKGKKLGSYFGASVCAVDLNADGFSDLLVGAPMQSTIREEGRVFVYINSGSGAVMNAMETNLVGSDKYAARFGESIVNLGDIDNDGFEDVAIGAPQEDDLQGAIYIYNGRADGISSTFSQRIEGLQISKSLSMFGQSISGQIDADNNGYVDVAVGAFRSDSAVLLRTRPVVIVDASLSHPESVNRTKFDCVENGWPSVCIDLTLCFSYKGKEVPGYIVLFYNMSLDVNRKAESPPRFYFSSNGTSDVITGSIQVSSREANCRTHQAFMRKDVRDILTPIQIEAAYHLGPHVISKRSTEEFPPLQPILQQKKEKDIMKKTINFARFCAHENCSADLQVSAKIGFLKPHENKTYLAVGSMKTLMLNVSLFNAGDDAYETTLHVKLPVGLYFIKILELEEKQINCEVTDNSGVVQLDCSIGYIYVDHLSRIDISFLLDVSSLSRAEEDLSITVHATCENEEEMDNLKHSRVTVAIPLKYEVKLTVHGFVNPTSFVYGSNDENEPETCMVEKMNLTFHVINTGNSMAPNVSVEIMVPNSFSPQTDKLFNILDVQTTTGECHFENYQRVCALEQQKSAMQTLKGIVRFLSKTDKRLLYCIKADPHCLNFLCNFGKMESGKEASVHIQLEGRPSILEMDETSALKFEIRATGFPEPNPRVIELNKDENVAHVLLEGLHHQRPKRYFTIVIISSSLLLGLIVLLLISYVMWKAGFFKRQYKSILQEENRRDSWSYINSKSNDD

Molecular target: T1, domain deletion ICAM-R/IgG chimera with ICAM-R domains 3, 4 and 5 (human) (UniProt P32942)
T1 sequence: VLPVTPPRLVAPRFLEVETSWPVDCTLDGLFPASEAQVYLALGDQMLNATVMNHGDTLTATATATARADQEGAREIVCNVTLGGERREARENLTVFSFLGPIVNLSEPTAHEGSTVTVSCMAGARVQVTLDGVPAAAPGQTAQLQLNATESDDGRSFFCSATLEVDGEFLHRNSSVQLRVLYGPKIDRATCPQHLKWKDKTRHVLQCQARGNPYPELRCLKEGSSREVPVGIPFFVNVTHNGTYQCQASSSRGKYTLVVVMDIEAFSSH
Experiment: cell adhesion, domain deletion ICAM-R/IgG

Question: With “VLA-4 (α4/β1) on cells (from UniProt P13612 34-1032; P05556 21-798) (receptor)” as the substance, how does the binding read?
Answer: Its binding is “binds”.
